These are yes or no findings as the source states them, for the method shown. Binding seen in cells or lysates may run through a third protein. A yes stands for co-enrichment or nearness to the bait. Other partners may have been found.
Molecular target: T1, R-spondin 3 (human (endogenous in AGS or MKN45 gastric cancer cells)) (UniProt Q9BXY4)
T1 sequence: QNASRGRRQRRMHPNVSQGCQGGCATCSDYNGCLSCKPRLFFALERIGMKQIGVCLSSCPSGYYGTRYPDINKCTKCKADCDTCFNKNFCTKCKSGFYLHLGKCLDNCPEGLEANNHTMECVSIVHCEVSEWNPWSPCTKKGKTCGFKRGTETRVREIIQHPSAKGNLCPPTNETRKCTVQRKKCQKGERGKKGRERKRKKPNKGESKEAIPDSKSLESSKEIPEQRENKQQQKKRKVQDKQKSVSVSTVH
Experiment: affinity purification with mass spectrometry; 200 ug cellular lysate precleared with rabbit IgG and Protein A + G Agarose, incubated with 20 ug anti-RSPO3 antibody at 4°C for 12 h, captured on Protein A + G Agarose; SDS-PAGE, in-gel trypsin digestion, LC-MS/MS

Amino acid sequences for entries named in this document (tags omitted).
UniProt O60262: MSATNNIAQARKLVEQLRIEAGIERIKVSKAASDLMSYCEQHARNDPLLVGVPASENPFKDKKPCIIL

- binding: binds
Sequence: G protein subunit gamma 7 (from UniProt O60262 1-68)

— paper PMC10997846
